This is an account of results in publication PMC12609774.

Chains of the proteins cited; added tags and fusions are not shown.
UniProt O00327: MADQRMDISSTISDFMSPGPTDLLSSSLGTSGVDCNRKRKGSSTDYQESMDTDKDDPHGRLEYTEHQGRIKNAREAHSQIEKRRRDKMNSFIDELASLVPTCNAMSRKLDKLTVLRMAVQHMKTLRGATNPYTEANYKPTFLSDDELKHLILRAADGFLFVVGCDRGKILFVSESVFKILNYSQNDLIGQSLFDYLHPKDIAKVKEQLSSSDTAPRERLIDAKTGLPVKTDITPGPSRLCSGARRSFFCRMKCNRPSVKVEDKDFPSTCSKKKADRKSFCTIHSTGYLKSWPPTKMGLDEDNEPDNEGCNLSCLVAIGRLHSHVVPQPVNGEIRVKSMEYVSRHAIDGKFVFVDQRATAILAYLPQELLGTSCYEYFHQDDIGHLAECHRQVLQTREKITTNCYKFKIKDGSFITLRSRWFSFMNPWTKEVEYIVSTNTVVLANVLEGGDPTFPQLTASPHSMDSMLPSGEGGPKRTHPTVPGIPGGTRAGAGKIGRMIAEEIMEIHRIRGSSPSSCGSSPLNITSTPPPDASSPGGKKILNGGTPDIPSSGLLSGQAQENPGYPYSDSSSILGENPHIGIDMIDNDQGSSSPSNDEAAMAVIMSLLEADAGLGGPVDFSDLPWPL

In this experiment the target is brain and muscle ARNT-Like 1 (BMAL1) (human (endogenous in MCF7)) (UniProt O00327). Briefly: co-IP; MCF7 cell lysate (buffer with protease and phosphatase inhibitors); anti-BMAL1 antibody or IgG control with Protein A/G PLUS agarose beads, overnight; Western blot of the immunoprecipitates. On the technique in general: In western blotting, separated proteins are transferred to a membrane and probed.

No constants are given. Whether binding was seen depends on the method and setting. In cells and extracts the contact can be indirect.

B1: Aldehyde dehydrogenase 3A1 (ALDH3A1) (enzyme, UniProt P30838 1-453)
chain: MSKISEAVKRARAAFSSGRTRPLQFRIQQLEALQRLIQEQEQELVGALAADLHKNEWNAYYEEVVYVLEEIEYMIQKLPEWAADEPVEKTPQTQQDELYIHSEPLGVVLVIGTWNYPFNLTIQPMVGAIAAGNSVVLKPSELSENMASLLATIIPQYLDKDLYPVINGGVPETTELLKERFDHILYTGSTGVGKIIMTAAAKHLTPVTLELGGKSPCYVDKNCDLDVACRRIAWGKFMNSGQTCVAPDYILCDPSIQNQIVEKLKKSLKEFYGEDAKKSRDYGRIISARHFQRVMGLIEGQKVAYGGTGDAATRYIAPTILTDVDPQSPVMQEEIFGPVLPIVCVRSLEEAIQFINQREKPLALYMFSSNDKVIKKMIAETSSGGVAANDVIVHITLHSLPFGGVGNSGMGSYHGKKSFETFSHRRSCLVRPLMNDEGLKVRYPPSPAKMTQH
B1: the binding result is on record as “no binding”.
